Results are given in words; binding and its absence hold for the method and conditions named. A result given as binding can be weak or reduced; the word gives no strength. Sequences can lack the tags named with a protein. For part of these data: Binding seen in cells or lysates may run through a third protein.
What was measured:
[1] = biological target: T1, Suppressor of Gene Silencing 3 from Nicotiana benthamiana (NbSGS3), BiFC fusion (Nicotiana benthamiana) (UniProt X4YFK1); assay: split reporter; BiFC with 2YN and 2YC fragments of YFP, agroinfiltrated leaves of H2B-RFP transgenic N. benthamiana, confocal microscopy at 48 hpi
T1 sequence: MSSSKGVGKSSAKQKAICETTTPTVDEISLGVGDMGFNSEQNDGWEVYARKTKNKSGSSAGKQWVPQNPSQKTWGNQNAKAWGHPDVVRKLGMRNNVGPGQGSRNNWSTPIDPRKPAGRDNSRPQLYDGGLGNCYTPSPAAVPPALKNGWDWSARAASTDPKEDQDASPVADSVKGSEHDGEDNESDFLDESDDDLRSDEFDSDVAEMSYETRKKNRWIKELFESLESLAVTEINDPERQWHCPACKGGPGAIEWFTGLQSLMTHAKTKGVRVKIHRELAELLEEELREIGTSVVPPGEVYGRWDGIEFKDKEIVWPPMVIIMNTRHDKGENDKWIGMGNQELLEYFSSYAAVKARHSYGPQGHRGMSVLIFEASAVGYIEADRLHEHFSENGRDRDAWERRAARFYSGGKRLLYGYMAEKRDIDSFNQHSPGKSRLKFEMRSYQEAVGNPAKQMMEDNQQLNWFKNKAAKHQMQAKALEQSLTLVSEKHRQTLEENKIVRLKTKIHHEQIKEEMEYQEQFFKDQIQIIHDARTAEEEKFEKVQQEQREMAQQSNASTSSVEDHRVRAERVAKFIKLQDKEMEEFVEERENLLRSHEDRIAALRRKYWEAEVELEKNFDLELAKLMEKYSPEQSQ

[2] = biological target: T2, Suppressor of Gene Silencing 3 from Nicotiana benthamiana (NbSGS3), GAL4 two-hybrid fusion (Nicotiana benthamiana) (UniProt X4YFK1); assay: two-hybrid; GAL4 system (pGADT7 AD, pGBKT7 BD) in yeast; reporter genes HIS3 and ADE2; growth on SD/Leu-Trp-His selection plates with 5 mM 3-AT; serial 10-fold dilutions
T2 sequence: T1 sequence

| Substance | binding [1] | binding [2] |
| --- | --- | --- |
| RNA-dependent RNA polymerase 6 from Nicotiana benthamiana (NbRDR6), BiFC fusion | binds |  |
| RNA-dependent RNA polymerase 6 from Nicotiana benthamiana (NbRDR6), GAL4 two-hybrid fusion (from UniProt Q647I5) |  | binds |
| calmodulin-like protein from Nicotiana benthamiana (NbCaM), BiFC fusion | binds |  |
